In patent US20160076098A1, “METHODS OF DIAGNOSING AND TREATING CHRONIC PAIN” (priority 2013, published 2016):
Numbered stars: 1 amine (or outer) side, 2 acyl side, 3 side chain; on linkers, the order of the positions; unused ones are H or OH. Bridge positions count the residues as written; N and C are the ends. Square brackets hold non-standard residues; d marks the D form. Peptide text beside a SMILES is read from it. * marks the point of attachment. Orn(4R-OH,5R-OCH2CH2NMe3+) = C[N+](C)(C)CCO[C@@H](N[*:3])[C@H](O)C[C@H](N[*:1])C(=O)[*:2]; pTerphenylCO(4''-OnC5H11) = CCCCCOc1ccc(-c2ccc(-c3ccc(C(=O)*)cc3)cc2)cc1; hTyr(3S-OH,4S-OH) = N[C@H](C(=O)O)[C@H](O)[C@@H](O)c1ccc(O)cc1; Pro(3S-OH,4S-Me) = C[C@H]1CN[C@H](C(=O)O)[C@H]1O; Hyp = O=C(O)[C@@H]1C[C@@H](O)CN1

Tested on: RAW 264.7 cells
Experiment: Exosomal RNA sequencing (NGS) of naive and LPS-stimulated RAW 264.7 cells
Assay type: cell-based, mouse
Conditions: for PS/cpntrol ratio: exosomal mRNA level after LPS stimulation of RAW 264.7 cells compared with exosomes from naive cells
Description: RAW 264.7 cells (ATCC) and RAW-Blue cells (Invivogen) were maintained in complete culture media (1×DMEM, 10% heat inactivated FBS). For exosome collection, RAW 264.7 cells (1×10^7) were plated in 150 mm dishes with complete culture media. At 24 hr, media was replaced with exosome-depleted media (1×DMEM, 10% heat-inactivated FBS depleted of exosomes by ultracentrifugation) with or without 1 μg/ml LPS (Sigma)) and incubated overnight. Media was collected in 50 ml tubes at 24 hr for exosome purification. Human THP1 macrophages were used in some experiments.
Exosome purification from cell culture media was performed as described (McDonald et al., 2013, J Visualized Exp 2013(76):e50294). Centrifugation was used to remove cell debris (500×g for 10 min); the supernatant was transferred and centrifuged (16,500×g for 20 min) Cell-free supernatants were filtered (0.22 μm; VWR, Radnor, Pa.) and exosomes were pelleted by ultracentrifugation (120,000×g for 70 min) The exosomal pellet was resuspended in buffer specific to downstream experiments and vortexed 2×15 seconds. For RNA purification, RNase inhibitors were added after the first centrifugation step at 1 U/ml (RNAsin Plus; Promega, Madison, Wis.) and at all subsequent steps at 1 U/μl. For purification from human samples, serum was diluted 1:1 with 1x PBS (−) Mg2+ and Ca2+(Corning 21-031-CV; Corning, N.Y.) and spun at 2000×g for 30 min at 4° C. The sample was transferred to a centrifuge tube and spun at 12,000×g for 45 min at 4° C., then transferred to an ultracentrifuge tube and spun at 110,000×g for 2 hr at 4° C. The pellet was resuspended in 1×PBS minus Mg^2+ and Ca^2+ and spun for an additional hour at 110,000×g before resuspension in RNA lysis buffer.
The SOLiD whole transcriptome analysis kit protocol with the fragmentation step omitted was used to generate a cDNA library for each sample. Total RNA, ranging in size from kilobases down to 10-mers, was purified from exosomes using the mirVana miRNA isolation kit (Life Technologies) following manufacturer's protocol. RNA concentration was measured using Nanodrop 1000 (NanoDrop Technologies, Wilmington, Del.). Total RNA from 3 independent exosome purifications was pooled to obtain 4 μg exosomal RNA per library (due to a limited amount of RNA in individual preparations), analyzed for integrity using the Agilent RNA 6000 Pico Kit (RNA integrity number between 1.6 and 2.1), and gel purified. Sequencing adapter ligation and cDNA reverse transcription were performed with SOLiD Total RNA-seq kit. DNA fragments in the target range of 150 to 500 bp were enriched using Agencourt AMPure XP PCR bead capture purification (Beckman Coulter; Brea, Calif.) before sequencing 50-bp pieces with no paired ends. The SOLiD 5500XL high-throughput sequencing platform (Applied Biosystems, Carlsbad, Calif.) was used for sequencing.
Sequencing reads were aligned to the mouse reference genome version mm9 (July, 2007) and transcripts were assembled based on refGene annotations (dated Dec. 16th, 2012) obtained from the UCSC Genome Browser (Karolchik et al., 2014, Nucleic acids research 42(1):D764-770) and non-coding RNA transcript definitions (dated Dec. 19th, 2012) from the fRNAdb database (Kin et al., 2007, Nucleic acids research 35(Database issue):D145-148) at ncrna.org. Reads were mapped using the LifeScope Whole Transcriptome Pipeline with default parameters, which effectively maps RNA fragments down to 22 nucleotides in length. The Cufflinks algorithm (Trapnell et al., 2013, Nature biotechnology 31(1):46-53) was used for transcript assembly, abundance estimation and differential expression analysis, using the reference transcript annotation as a guide. Results generated from Cufflinks were investigated using the CummeRbund package (www.R-project.org). […]

[1] = exosomal mRNA level (NGS) in exosomes from LPS-stimulated RAW 264.7 cells
[2] = exosomal transcript level, exosomes from LPS-stimulated RAW 264.7 cells, NGS

Compound	FKPM LPS [1]	PS/cpntrol ratio	FKPM LPS [2]
CCCCCOc1ccc(-c2ccc(-c3ccc(C(=O)N[C@H]4C[C@@H](O)[C@@H](OCC[N+](C)(C)C)NC(=O)[C@@H]5[C@@H](O)[C@@H](C)CN5C(=O)[C@H]([C@@H](C)O)NC(=O)[C@H]([C@H](O)[C@@H](O)c5ccc(O)cc5)NC(=O)[C@@H]5C[C@@H](O)CN5C(=O)[C@H]([C@@H](C)O)NC4=O)cc3)cc2)cc1 [Cd101] ({pTerphenylCO(4''-OnC5H11)}-[Orn(4R-OH,5R-OCH2CH2NMe3+)]T[Hyp][hTyr(3S-OH,4S-OH)]T[Pro(3S-OH,4S-Me)]; lactam 1-C)	.218311	.25	
Ccl4	0.7929	.25	
Gdf11			.905503 FKPM
Pgcp			.17431 FKPM
